From the supplement of paper PMC11732987, “Enantioselective OTUD7B fragment discovery through chemoproteomics screening and high-throughput optimisation” (Communications Chemistry, 2025) come the findings set out here.

Amino acid sequences for entries named in this document (tags omitted). A change or cut given only in a name is not applied to a line headed by its entry. Residues count along the entry.
UniProt Q92994: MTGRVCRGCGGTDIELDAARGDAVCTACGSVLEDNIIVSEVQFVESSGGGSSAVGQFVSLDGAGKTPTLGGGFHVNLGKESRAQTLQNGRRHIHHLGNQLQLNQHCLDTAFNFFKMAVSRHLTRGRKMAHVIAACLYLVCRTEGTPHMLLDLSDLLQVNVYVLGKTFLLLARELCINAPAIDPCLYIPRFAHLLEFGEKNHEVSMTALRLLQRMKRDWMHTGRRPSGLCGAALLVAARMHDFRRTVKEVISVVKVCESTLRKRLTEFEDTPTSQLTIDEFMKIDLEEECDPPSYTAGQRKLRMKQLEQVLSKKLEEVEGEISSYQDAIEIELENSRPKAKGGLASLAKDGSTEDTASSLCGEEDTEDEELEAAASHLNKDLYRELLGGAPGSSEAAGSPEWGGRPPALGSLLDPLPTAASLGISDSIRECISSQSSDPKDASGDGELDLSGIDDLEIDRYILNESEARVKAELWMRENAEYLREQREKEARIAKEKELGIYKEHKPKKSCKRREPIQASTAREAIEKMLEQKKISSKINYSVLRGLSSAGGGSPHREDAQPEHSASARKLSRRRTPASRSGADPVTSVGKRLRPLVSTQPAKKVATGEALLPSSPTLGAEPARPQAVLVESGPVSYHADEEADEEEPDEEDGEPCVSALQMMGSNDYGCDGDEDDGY
UniProt Q86YS7: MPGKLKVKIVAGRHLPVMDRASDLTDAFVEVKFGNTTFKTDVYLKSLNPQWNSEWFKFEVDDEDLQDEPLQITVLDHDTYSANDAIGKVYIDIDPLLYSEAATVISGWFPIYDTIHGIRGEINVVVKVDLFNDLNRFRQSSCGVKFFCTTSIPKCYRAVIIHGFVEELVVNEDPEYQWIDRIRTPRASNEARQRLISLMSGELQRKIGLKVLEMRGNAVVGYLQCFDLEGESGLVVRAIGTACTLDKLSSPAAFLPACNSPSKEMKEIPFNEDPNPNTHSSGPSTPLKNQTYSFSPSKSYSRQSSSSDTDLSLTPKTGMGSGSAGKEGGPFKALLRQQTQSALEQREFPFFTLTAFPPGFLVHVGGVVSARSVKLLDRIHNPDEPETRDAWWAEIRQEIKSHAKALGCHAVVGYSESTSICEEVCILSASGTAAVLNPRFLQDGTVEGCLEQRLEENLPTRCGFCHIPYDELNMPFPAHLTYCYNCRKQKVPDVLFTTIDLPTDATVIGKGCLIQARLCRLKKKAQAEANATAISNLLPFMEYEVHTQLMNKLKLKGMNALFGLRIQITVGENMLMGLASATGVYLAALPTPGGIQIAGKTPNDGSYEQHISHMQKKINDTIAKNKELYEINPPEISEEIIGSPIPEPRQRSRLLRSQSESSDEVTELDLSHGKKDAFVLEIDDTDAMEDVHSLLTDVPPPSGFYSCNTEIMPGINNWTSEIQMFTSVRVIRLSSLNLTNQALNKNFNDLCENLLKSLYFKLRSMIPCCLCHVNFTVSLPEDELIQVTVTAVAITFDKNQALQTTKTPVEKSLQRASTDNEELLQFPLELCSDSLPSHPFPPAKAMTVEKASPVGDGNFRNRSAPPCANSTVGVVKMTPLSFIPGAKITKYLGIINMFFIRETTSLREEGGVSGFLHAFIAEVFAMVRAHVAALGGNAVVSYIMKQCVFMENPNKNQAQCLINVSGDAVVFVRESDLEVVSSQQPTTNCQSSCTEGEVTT
UniProt Q8NFC6: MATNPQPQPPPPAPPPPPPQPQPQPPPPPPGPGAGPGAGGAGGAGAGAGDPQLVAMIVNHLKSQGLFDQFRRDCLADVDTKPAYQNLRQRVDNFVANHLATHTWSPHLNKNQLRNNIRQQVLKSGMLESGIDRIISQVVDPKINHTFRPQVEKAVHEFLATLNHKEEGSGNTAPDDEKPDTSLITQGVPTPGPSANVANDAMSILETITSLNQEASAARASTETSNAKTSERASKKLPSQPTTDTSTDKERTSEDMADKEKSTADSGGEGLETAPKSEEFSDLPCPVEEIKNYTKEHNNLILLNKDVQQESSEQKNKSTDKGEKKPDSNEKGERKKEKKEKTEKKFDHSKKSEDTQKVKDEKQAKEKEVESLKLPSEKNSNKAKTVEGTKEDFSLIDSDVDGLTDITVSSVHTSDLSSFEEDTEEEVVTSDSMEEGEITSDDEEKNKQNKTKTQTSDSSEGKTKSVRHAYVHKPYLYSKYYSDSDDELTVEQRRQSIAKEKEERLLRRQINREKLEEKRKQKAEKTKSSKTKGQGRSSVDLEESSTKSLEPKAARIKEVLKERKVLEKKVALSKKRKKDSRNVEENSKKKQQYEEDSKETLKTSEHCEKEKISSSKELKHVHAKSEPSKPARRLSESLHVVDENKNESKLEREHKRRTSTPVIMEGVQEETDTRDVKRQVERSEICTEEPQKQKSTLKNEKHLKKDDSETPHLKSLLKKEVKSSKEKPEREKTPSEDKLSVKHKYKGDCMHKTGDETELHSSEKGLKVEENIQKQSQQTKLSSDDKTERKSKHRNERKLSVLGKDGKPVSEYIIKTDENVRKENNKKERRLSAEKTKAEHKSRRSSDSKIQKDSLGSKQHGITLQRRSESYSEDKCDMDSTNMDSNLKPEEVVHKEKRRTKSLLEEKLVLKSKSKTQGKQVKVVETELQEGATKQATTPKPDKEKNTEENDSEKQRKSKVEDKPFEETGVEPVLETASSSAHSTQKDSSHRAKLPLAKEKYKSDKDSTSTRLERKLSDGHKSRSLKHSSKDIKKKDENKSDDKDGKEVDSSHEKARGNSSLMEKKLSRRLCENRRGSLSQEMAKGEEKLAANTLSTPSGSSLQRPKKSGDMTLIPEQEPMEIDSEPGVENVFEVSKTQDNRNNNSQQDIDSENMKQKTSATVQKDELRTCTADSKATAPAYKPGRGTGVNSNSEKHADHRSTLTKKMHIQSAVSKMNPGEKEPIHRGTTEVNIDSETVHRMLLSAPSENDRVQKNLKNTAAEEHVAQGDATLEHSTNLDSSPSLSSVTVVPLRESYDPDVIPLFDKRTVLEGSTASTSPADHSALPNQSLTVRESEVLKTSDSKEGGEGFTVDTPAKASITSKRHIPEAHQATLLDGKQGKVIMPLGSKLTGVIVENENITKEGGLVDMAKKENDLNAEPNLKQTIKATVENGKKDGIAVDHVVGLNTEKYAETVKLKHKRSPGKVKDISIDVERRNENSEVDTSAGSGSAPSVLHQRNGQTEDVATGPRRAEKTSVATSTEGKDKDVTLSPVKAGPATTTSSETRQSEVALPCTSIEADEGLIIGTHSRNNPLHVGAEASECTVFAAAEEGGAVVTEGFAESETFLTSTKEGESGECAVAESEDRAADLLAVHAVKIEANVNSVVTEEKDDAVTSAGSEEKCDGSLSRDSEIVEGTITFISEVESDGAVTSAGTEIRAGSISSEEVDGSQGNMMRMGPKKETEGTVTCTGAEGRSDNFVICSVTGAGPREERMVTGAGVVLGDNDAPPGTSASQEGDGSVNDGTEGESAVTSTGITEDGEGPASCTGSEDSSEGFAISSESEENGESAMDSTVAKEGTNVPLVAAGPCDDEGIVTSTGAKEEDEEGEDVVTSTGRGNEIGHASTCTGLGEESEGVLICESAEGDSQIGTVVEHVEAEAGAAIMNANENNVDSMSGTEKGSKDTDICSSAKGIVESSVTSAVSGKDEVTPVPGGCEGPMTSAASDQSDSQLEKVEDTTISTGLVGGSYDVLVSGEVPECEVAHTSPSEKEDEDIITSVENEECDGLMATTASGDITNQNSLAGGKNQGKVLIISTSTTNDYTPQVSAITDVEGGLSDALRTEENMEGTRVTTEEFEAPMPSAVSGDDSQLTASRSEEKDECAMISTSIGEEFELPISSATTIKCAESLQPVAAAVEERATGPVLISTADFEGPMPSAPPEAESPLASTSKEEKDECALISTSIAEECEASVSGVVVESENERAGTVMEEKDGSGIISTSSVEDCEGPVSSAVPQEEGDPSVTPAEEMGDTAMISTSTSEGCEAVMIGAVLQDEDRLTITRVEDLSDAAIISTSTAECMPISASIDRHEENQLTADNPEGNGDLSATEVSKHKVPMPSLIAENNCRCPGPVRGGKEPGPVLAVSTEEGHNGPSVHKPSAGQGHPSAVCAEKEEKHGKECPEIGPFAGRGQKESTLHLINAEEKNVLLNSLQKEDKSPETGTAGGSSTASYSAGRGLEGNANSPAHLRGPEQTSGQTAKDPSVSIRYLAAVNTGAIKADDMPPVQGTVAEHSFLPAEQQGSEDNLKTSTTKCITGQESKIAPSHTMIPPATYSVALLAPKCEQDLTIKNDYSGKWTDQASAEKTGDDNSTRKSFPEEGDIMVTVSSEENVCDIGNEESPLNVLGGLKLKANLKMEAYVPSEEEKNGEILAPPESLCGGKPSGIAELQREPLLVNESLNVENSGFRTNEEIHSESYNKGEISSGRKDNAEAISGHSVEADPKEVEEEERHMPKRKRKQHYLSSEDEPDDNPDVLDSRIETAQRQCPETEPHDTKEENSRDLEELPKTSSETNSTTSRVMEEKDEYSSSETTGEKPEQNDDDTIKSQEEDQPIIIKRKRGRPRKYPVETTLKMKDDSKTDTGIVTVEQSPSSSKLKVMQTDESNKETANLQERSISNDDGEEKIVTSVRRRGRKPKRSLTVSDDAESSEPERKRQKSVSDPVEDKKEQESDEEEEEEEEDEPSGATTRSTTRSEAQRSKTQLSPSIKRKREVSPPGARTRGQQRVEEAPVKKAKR
UniProt Q9Y3E2: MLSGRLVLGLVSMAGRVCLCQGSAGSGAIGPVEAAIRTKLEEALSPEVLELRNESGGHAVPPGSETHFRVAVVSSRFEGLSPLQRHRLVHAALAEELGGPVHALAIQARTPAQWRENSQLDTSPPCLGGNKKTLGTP
UniProt P78410: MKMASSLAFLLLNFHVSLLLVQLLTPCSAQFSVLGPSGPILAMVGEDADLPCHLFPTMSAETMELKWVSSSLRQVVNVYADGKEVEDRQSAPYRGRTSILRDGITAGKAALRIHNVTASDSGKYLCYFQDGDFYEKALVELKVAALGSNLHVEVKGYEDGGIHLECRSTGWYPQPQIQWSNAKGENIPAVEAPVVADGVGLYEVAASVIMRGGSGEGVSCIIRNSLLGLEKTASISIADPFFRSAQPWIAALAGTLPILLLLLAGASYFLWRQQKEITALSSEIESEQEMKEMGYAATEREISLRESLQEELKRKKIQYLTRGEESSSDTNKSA
UniProt O75155, 112-132: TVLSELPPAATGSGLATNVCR
UniProt Q9HA77: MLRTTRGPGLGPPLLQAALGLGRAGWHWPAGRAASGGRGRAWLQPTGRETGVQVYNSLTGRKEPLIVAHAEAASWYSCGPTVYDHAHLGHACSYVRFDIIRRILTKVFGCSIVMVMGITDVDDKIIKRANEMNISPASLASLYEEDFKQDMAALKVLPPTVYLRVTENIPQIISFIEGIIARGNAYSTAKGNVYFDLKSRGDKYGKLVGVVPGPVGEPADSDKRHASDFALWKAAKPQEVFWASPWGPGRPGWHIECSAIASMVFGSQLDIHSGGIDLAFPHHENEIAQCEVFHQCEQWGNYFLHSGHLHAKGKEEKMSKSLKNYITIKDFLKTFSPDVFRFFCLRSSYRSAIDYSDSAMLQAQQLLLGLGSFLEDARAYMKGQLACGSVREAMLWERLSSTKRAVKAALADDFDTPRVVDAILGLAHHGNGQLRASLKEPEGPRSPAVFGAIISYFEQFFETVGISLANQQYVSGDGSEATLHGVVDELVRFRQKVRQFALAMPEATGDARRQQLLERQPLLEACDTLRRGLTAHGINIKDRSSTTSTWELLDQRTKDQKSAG
UniProt Q13557: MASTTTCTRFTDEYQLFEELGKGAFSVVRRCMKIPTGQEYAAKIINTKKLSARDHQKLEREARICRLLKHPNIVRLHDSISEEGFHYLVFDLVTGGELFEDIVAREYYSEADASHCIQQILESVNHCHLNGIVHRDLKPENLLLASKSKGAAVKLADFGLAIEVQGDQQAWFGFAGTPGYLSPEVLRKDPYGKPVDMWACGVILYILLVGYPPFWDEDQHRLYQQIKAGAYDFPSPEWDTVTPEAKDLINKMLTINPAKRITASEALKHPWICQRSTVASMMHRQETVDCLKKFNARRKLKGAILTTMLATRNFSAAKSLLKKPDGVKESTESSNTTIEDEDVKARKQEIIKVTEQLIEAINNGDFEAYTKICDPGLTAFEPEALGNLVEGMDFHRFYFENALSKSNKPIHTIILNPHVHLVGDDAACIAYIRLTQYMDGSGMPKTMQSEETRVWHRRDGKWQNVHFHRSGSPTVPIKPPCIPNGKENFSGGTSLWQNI
UniProt P17655, 391-414: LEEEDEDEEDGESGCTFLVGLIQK
UniProt P16152: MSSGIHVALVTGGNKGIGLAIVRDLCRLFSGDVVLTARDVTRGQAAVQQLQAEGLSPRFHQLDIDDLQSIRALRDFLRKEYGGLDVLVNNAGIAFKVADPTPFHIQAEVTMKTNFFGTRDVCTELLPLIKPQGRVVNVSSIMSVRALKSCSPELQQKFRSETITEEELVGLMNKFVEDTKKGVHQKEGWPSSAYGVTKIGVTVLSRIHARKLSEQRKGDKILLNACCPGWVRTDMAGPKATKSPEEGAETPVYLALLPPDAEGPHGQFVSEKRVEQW

This is one part of the list. The data scatter; read single values as rough.

Compound in the first test: ClCC(=O)N[C@@H]1CCCc2ccccc12
The experiment in a line: log2 mean competition ratio of IA-DTB cysteine labelling (DMSO/compound) (log2 ratio); higher = stronger cysteine engagement by compound. The note with it: 200 µM; treatment time: 4 h; cell line lysate: HEK293T. The method, then: (§1)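 IA-DTB competitive cysteine chemoproteomics in HEK293T RIPA lysate. Lysates were treated with compound 29 or 30 at 50 or 200 µM for 4 h, then IA-DTB (500 µM, 1 h), trypsin-digested, NeutrAvidin-enriched and analysed by diaPASEF. Competition ratio = intensity DMSO / intensity compound (n=4 treated, n=64 DMSO); binding: mean log2 CR ≥ 1 and p ≤ 0.05 plus QC filters. Target is the cysteine site.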
Regarding BRF1 C289 (UniProt Q92994), the “log2 mean competition ratio” value is -0.257.
Same read-out and setting: then C2CD5 C142 (UniProt Q86YS7), with 0.0321.
Consider CAD C1455, for which the “log2 mean competition ratio” value is -0.0767.
On to BRD9 C101 (UniProt Q9H8M2), for which the “log2 mean competition ratio” value was found to be 0.0129.
Still for that read-out and setting: with CARMIL1 C464 the figure was 0.0989; with CAPZB C206 (UniProt P47756), -0.00515.
CAMSAP1 C719 (UniProt Q5T5Y3): the “log2 mean competition ratio” value was 0.133.
BRIP1 C401 (UniProt Q9BX63): the “log2 mean competition ratio” value is -0.0537.
On to BRCC3 C240 (UniProt P46736), for which the “log2 mean competition ratio” value came out at 0.157.
On the same count and under the same terms, then BOD1L1 C1742 (UniProt Q8NFC6), with 0.0263.
Consider CAMKV C36, for which the “log2 mean competition ratio” value was -0.0891.
On to C2orf72 C244, for which the “log2 mean competition ratio” value was 0.283.
Regarding CAMKK2 C4 (UniProt Q96RR4), the “log2 mean competition ratio” value came out at 0.119.
As for BRMS1L C275 (UniProt Q5PSV4), the “log2 mean competition ratio” value was -0.359.
The same measure, in the same setting: then BOLA1 C126 (UniProt Q9Y3E2), with -0.0666; and BTN3A2 C220 (UniProt P78410), with 0.0864.

Compound in the next test: ClCC(=O)N[C@H]1CCCc2ccccc12
The description is as above. The note with it: 50 µM; treatment time: 4 h; cell line lysate: HEK293T. As to the method: as §1
With BOD1L1 C1618 (UniProt Q8NFC6), the “log2 mean competition ratio” value was -0.143.
Still for that read-out and setting: then C19orf54 C186 (UniProt Q5BKX5), with -0.384.
With CAND1 C571, the “log2 mean competition ratio” value was 0.12.
As for BOD1L1 C285 (UniProt Q8NFC6), the “log2 mean competition ratio” value was -0.0909.
In the case of C6orf89 C28 (UniProt Q6UWU4), the “log2 mean competition ratio” value is -0.204.
Regarding CAPN5 C495, the “log2 mean competition ratio” value is -0.135.
CARMIL2 C1339 (UniProt Q6F5E8): the “log2 mean competition ratio” value came out at 0.283.
For the target CAMSAP2 C1032 (UniProt Q08AD1), the “log2 mean competition ratio” value came out at 0.0488.
As for BPTF C20, the “log2 mean competition ratio” value was -0.221.
CAND2 C131 (UniProt O75155): the “log2 mean competition ratio” value stood at 0.65.
On the same count and under the same terms, then BPTF C1156, with -0.408.
On to BORCS6 C67 (UniProt Q96GS4), for which the “log2 mean competition ratio” value worked out at 0.148.
Same read-out and setting: with C8orf76 C248 (UniProt Q96K31) the figure was -0.0971; with CARS2 C526 (UniProt Q9HA77), -0.151.
On the same count and under the same terms, then CAMK2D C481 (UniProt Q13557), with 0.0503.
On to C1orf174 C42 (UniProt Q8IYL3), for which the “log2 mean competition ratio” value was found to be 0.285.
On to CAPN2 C405 (UniProt P17655), for which the “log2 mean competition ratio” value is -0.0915.
With CBR1 C122 (UniProt P16152), the “log2 mean competition ratio” value is -0.448.
Still for that read-out and setting: with CA8 C200 (UniProt P35219) the figure was -0.0832; with C8orf33 C21 (UniProt Q9H7E9), 0.0886.
CAPN2 C341 (UniProt P17655): the “log2 mean competition ratio” value is -0.159.
For the target BRF1 C289 (UniProt Q92994), the “log2 mean competition ratio” value turned out to be 0.0844.
As for C2CD5 C142 (UniProt Q86YS7), the “log2 mean competition ratio” value is -0.175.
As to CAD C1455, the “log2 mean competition ratio” value was -0.00633.
Consider BRD9 C101 (UniProt Q9H8M2), for which the “log2 mean competition ratio” value is -0.358.
On the same count and under the same terms, then CARMIL1 C464, with -0.33.
On the same count and under the same terms, with CAPZB C206 (UniProt P47756) the figure was 0.000226.
The same measure, in the same setting: with CAMSAP1 C719 (UniProt Q5T5Y3) the figure was 0.363; with BRIP1 C401 (UniProt Q9BX63), -0.467.
Take BRCC3 C240 (UniProt P46736): the “log2 mean competition ratio” value was -0.49.
On the same count and under the same terms, then BOD1L1 C1742 (UniProt Q8NFC6), with 0.279; and CAMKV C36, with -0.205; and C2orf72 C244, with 0.0734.
Regarding CAMKK2 C4 (UniProt Q96RR4), the “log2 mean competition ratio” value amounted to 0.149.
Turning to BRMS1L C275 (UniProt Q5PSV4), the “log2 mean competition ratio” value was -0.242.
The same measure, in the same setting: then BOLA1 C126 (UniProt Q9Y3E2), with 0.138; and BTN3A2 C220 (UniProt P78410), with -0.0194.
